Measurements published in publication PMC10505911.

By UniProt entry, the sequences of proteins in these tests, tags left out. Where a name states a change or a piece, a line headed by the entry shows the natural chain unless it says otherwise. Chains listed by the source or under a name are the forms on record and can include a tag or linker. Residues count along the entry.
UniProt Q9BY78: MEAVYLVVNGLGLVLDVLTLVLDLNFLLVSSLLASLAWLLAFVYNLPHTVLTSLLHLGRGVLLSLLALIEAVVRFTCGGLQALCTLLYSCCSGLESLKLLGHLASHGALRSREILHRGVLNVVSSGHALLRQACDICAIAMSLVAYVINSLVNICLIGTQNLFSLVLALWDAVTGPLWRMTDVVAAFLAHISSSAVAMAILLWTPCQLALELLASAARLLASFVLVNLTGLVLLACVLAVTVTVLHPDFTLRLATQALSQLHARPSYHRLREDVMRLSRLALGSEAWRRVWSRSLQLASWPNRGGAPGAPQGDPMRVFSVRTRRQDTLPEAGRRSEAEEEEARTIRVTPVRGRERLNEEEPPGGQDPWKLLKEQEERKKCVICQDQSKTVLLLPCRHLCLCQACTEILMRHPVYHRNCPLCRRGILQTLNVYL
GST-RNF26: residues 304-433 of Q9BY78
2HA-TurboID-I382R-∆C (Q9BY78, form named): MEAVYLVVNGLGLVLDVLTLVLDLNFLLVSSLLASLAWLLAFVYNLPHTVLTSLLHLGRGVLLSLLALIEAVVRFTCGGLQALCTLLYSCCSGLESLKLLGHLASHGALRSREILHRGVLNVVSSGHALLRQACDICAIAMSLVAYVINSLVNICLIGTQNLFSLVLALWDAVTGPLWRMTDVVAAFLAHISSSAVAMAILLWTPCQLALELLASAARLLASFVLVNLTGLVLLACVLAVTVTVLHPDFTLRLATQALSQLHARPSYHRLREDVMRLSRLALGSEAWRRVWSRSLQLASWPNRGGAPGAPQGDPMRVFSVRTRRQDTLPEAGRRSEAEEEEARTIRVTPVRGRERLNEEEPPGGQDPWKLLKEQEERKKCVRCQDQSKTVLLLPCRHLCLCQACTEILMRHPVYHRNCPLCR
UniProt P08670: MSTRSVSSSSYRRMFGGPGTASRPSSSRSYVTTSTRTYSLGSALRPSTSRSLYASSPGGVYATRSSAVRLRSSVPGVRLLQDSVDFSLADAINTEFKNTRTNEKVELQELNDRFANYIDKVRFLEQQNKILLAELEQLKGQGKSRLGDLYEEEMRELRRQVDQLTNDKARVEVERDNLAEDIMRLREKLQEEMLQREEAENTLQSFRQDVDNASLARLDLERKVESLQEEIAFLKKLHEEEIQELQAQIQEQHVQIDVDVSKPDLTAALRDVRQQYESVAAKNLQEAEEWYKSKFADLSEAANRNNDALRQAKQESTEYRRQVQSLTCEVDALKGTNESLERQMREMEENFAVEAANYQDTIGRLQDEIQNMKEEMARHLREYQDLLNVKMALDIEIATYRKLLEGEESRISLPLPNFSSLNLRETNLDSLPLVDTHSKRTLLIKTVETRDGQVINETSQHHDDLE

Experiments:
[1] = molecular target: GST-RNF26 (304–433) (UniProt Q9BY78); assay: affinity purification with mass spectrometry; recombinant GST-RNF26 (304–433) as bait, co-precipitates from MelJuSo cell lysate; bands cut from a silver-stained gel, LC-MS; only the target purified
[2] = molecular target: 2HA-TurboID-RNF26 I382R (UniProt Q9BY78); assay: proximity labelling; 2HA-TurboID-RNF26 variants expressed in HeLa (quantified in U2OS and HeLa); 30 min biotin before lysis; neutravidin precipitates blotted for vimentin and HA
[3] = molecular target: 2HA-TurboID-I382R-∆C (UniProt Q9BY78); assay: as above
[4] = molecular target: 2HA-TurboID-RNF26 (UniProt Q9BY78); assay: as above

binding [1]	binding [2]	binding [3]	binding [4]	Substance
binds	–	–	–	vimentin (endogenous, MelJuSo lysate) (from UniProt P08670 1-466)
–	binds	no binding	binds weakly	vimentin (endogenous, HeLa and U2OS cells) (from UniProt P08670 1-466)

No constants are given. Whether binding was seen depends on the method and setting. Binding seen in cells or lysates may run through a third protein. A yes stands for co-enrichment or nearness to the bait. Other partners may have been found. For some of these results: No binding means not detected with the bait.
